# Measurements from article PMC6749325, “Hybrids of Cinchona Alkaloids and Bile Acids as Antiparasitic Agents Against Trypanosoma cruzi” (Molecules, 2019).
# System: T. cruzi Y (DTU II) trypomastigotes
# Assay: Trypomastigote IC50 estimation, Y strain
# Format: cell-based, Trypanosoma cruzi
# Method: The NRK and Vero cell lines were routinely maintained in DMEM (Gibco) supplemented with 10% SFB (Natocor) and Penicillin/Streptomicin (100 Units/0.1mg/mL, Sigma) at 37 °C and 5% CO2 atmosphere. The trypomatigotes of T. cruzi strains CL Brener, Y, and RA were routinely maintained in Vero cells cultured in DMEM supplemented with 4% SFB and Penicillin/Streptomicin. The trypomastigotes of each strain were purified from infected Vero cells supernatants and used in the different assays.
# 2 × 10^6/mL trypomastigotes were incubated with different concentrations of the hybrids, control drug or vehicle, by triplicate at 37 °C and 5% CO2 for 24 h. Next, trypomastigotes were counted in a Neubauer chamber. The IC50 ± SD (n = 3) were estimated using the “Dose–Response” module in Graphpad Prism.
row,Structure (SMILES),fold difference compared to the IC50 value of Bz
1,C=CC1CN2CCC1CC2C(O)c1cc(CCC(C)C2CCC3C4C(OC(C)=O)CC5CC(OC(C)=O)CCC5(C)C4CCC23C)nc2ccccc12 (centres unmarked) [Hybrid 4f],20–30 fold
2,C=CC1CN2CCC1CC2C(O)c1cc(CCC(C)C2CCC3C4C(O)CC5CC(O)CCC5(C)C4CCC23C)nc2ccccc12 (centres unmarked) [Hybrid 5f],20–30 fold
